Experimental data: PubChem BioAssay AID1508588 (Peter MacCallum Cancer Centre, 2020)
This is one part, drawn at random, of about 18,000 deposited reagents. 790 of them (4.4%) count as active. 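Calls rest on a combination of fold-change classes in drug and vehicle arms, not all shown here.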 Unmarked entries are inactive.

- Test: 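Genome-wide search for knock-downs that heighten vemurafenib action in melanoma cells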 (primary screen)
- Cell system: human WM266.4 melanoma cells (BRAF V600 mutant)
- Reagent: siRNA pool against human genes, 40 nM
- Duration: 96 h from transfection to read-out
- Treatment: vemurafenib 300 nM (about IC25), added 48 h after transfection, for 48 h; comparison arm got DMSO vehicle only
- Measurement: 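Cell gain (DAPI nuclei at end minus before drug, mean of two replicates) and medium lactate by absorbance per cell, both as ratio to non-targeting siRNA, also grouped into fold-change classes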
- Scale: cell gain with vemurafenib: higher = more cell gain than with non-targeting siRNA; lactate per cell with vemurafenib: higher = more lactate made per cell
- Active means: 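a knock-down counts as enhancing when its fold-change classes with vehicle and with vemurafenib, taken together, show a stronger drug effect on cell gain or lactate per cell; exact class pairs not stated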
- Meaning of the calls: active = enhances vemurafenib effect; inactive = no enhancement seen

With WDR36 (WD repeat domain 36), how do the results read?
cell gain with vemurafenib: 0.72; lactate per cell with vemurafenib: 0.83

How did the screen score SPINK13 (serine peptidase inhibitor Kazal type 13)?
cell gain with vemurafenib: 0.7; lactate per cell with vemurafenib: 0.52

What is on record for ELP5 (elongator acetyltransferase complex subunit 5)?
cell gain with vemurafenib: 0.96; lactate per cell with vemurafenib: 0.31

How did the screen score EME1 (essential meiotic structure-specific endonuclease 1)?
cell gain with vemurafenib: -0.1; lactate per cell with vemurafenib: 1.88

For RAB33A (RAB33A, member RAS oncogene family), what does the deposit list?
cell gain with vemurafenib: 0.2; lactate per cell with vemurafenib: 0.28

With COL27A1 (collagen type XXVII alpha 1 chain), what was measured?
cell gain with vemurafenib: 0.86; lactate per cell with vemurafenib: 0.37

For KCTD12 (potassium channel tetramerization domain containing 12), how do the results read?
cell gain with vemurafenib: 0.08; lactate per cell with vemurafenib: 1.89

With RIMOC1 (RAB7A interacting MON1-CCZ1 complex subunit 1), what does the deposit list?
cell gain with vemurafenib: 0.48; lactate per cell with vemurafenib: 0.84

How did the screen score ENTPD1 (ectonucleoside triphosphate diphosphohydrolase 1)?
cell gain with vemurafenib: 0.25; lactate per cell with vemurafenib: 0.9

How did the screen score NMBR (neuromedin B receptor)?
cell gain with vemurafenib: 0.54; lactate per cell with vemurafenib: 1.24

Which result is listed for ARVCF (ARVCF delta catenin family member)?
cell gain with vemurafenib: 0.89; lactate per cell with vemurafenib: 0.64

With OR3A3 (olfactory receptor family 3 subfamily A member 3), what was measured?
cell gain with vemurafenib: 0.74; lactate per cell with vemurafenib: 1.23

What did the screen give for EPC1 (enhancer of polycomb 1)?
cell gain with vemurafenib: 0.52; lactate per cell with vemurafenib: 0.98

With MAD2L1BP (MAD2L1 binding protein), how do the results read?
cell gain with vemurafenib: 0.76; lactate per cell with vemurafenib: 0.86

How did the screen score PON1 (paraoxonase 1)?
cell gain with vemurafenib: 0.76; lactate per cell with vemurafenib: 0.76

For NKX2-3 (NK2 homeobox 3), what was measured?
cell gain with vemurafenib: 0.31; lactate per cell with vemurafenib: 2.25

What did the screen give for KCTD13 (potassium channel tetramerization domain containing 13)?
cell gain with vemurafenib: 0.63 (active); lactate per cell with vemurafenib: 0.49

Which result is listed for ATG12 (autophagy related 12)?
cell gain with vemurafenib: 0.61; lactate per cell with vemurafenib: 0.62

Which result is listed for ESRP2 (epithelial splicing regulatory protein 2)?
cell gain with vemurafenib: 0.09; lactate per cell with vemurafenib: 0.71

Which result is listed for TAS2R39 (taste 2 receptor member 39)?
cell gain with vemurafenib: 0.68; lactate per cell with vemurafenib: 1.12

How did the screen score PMS2P3?
cell gain with vemurafenib: 0.3; lactate per cell with vemurafenib: 0.56

What did the screen give for CHRNA3 (cholinergic receptor nicotinic alpha 3 subunit)?
cell gain with vemurafenib: 0.38; lactate per cell with vemurafenib: 1.56

What did the screen give for HACD2 (3-hydroxyacyl-CoA dehydratase 2)?
cell gain with vemurafenib: 0.58; lactate per cell with vemurafenib: 1.34

Which result is listed for MTG1 (mitochondrial ribosome associated GTPase 1)?
cell gain with vemurafenib: 0.61 (active); lactate per cell with vemurafenib: 0.48

For CPA2 (carboxypeptidase A2), how do the results read?
cell gain with vemurafenib: 0.22; lactate per cell with vemurafenib: 1.4

How did the screen score PABPC3 (poly(A) binding protein cytoplasmic 3)?
cell gain with vemurafenib: 1.05; lactate per cell with vemurafenib: 0.53

For TP73 (tumor protein p73), what does the deposit list?
cell gain with vemurafenib: 0.97; lactate per cell with vemurafenib: 0.6

3 consecutive records already listed:
OR3A3 (olfactory receptor family 3 subfamily A member 3) → cell gain with vemurafenib = 0.74; lactate per cell with vemurafenib = 1.23
EPC1 (enhancer of polycomb 1) → cell gain with vemurafenib = 0.52; lactate per cell with vemurafenib = 0.98
MAD2L1BP (MAD2L1 binding protein) → cell gain with vemurafenib = 0.76; lactate per cell with vemurafenib = 0.86
